Measurements reported in patent US20220371988A1, “TRPV1 AGONIST AND PREPARATION METHOD THEREFOR AND USE THEREOF” (NANJING DELOVA BIOTECH CO. LTD., priority 2019, published 2022).
Some results were stated once for a whole list of compounds, not compound by compound.

System: rats as models of pain after incision
Experiment: Thermal hyperalgesia test (Hargreaves method) in rats as models of pain after incision
Type: in vivo, SD rat
Conditions: HD group: A-17 0.6 mg/animal, parent 0.36 mg/animal; injection at incision site

COc1cc(CNC(=O)CCCC/C=C/C(C)C)ccc1O [trans-8-methyl-N-vanillyl-6-nonenamide]
Time after surgery at which thermal withdrawal latency (TWL) was increased vs blank preparation group (P<0.05): 1 to 72 h
